Measurements reported in PubChem BioAssay AID602196 (INSERM, 2012)
Test: 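Genes whose knock-down alters cisplatin killing of lung cancer cells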. Cell system: human A549 lung cancer cells. Reagents: siRNA pair against human genes. Time to read-out: 48 h transfection before cisplatin; time from cisplatin to read-out not stated. Treatment: cisplatin at a dose killing half of control-siRNA cells; exact dose and duration not given. Detection: 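Cisplatin cell death as a shift from the 50% death seen with control siRNA; siRNAs toxic or growth-blocking alone scored 0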. Direction: two-siRNA summed score (-2 to +2): higher = both siRNAs protect from cisplatin killing; -2 means both sensitise; mean protection from cisplatin (shift in death): higher = protection from cisplatin killing. Call rule: 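Each siRNA scores 0 if harmful alone by LDH or WST-1, otherwise +1 if it reduces and -1 if it increases cisplatin killing; a gene is active when both siRNAs agree (sum +2 or -2)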. Meaning of the calls: active = both siRNAs shift cisplatin killing the same way; inactive = no consistent shift, or siRNA harmful alone.
This is one part, drawn at random, of about 23,000 reagents. 455 of them (2%) count as active. 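Active includes both protection and sensitisation; some change values fall well beyond the stated -50 to +50 range.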 Not all columns of the deposit are shown. Not given: the amount of reagent.

gene | two-siRNA summed score (-2 to +2) | mean protection from cisplatin (shift in death) (%) | Call
SYT6 (synaptotagmin 6) | 1 | 19.2 | inactive
LOC284232 | 1 | 12.4 | inactive
PSMD8 (proteasome 26S subunit, non-ATPase 8) | 0 | 9.5 | inactive
OR4A5 (olfactory receptor family 4 subfamily A member 5) | 0 | -2.1 | inactive
PDPR (pyruvate dehydrogenase phosphatase regulatory subunit) | 1 | 8.4 | inactive
HNRNPLL (heterogeneous nuclear ribonucleoprotein L like) | 0 | -19.6 | inactive
RASSF2 (Ras association domain family member 2) | 1 | 19.9 | inactive
ARSG (arylsulfatase G) | -1 | -22.8 | inactive
LOC153297 | 0 | 5.6 | inactive
SMC4 (structural maintenance of chromosomes 4) | 0 | 8.9 | inactive
CDC37L1 (cell division cycle 37 like 1, HSP90 cochaperone) | 0 | -4 | inactive
LOC388131 | 0 | 10.8 | inactive
OR2M4 (olfactory receptor family 2 subfamily M member 4) | 0 | 2.2 | inactive
IGF1 (insulin like growth factor 1) | 0 | 4.4 | inactive
BAG4 (BAG cochaperone 4) | 0 | 12.9 | inactive
ARMC1 (armadillo repeat containing 1) | 0 | -2.8 | inactive
SP4 (Sp4 transcription factor) | 1 | 17.1 | inactive
TMEM247 (transmembrane protein 247) | 1 | 11.4 | inactive
TIMM44 (translocase of inner mitochondrial membrane 44) | 0 | 5.7 | inactive
ZNF587 (zinc finger protein 587) | 0 | 0.7 | inactive
LOC343052 (immunoglobulin superfamily DCC subclass member 3 pseudogene) | -1 | -3.3 | inactive
MKRN3 (makorin ring finger protein 3) | 0 | -4.2 | inactive
RUNDC1 (RUN domain containing 1) | 0 | 6.9 | inactive
NUDT2 (nudix hydrolase 2) | 1 | 22.6 | inactive
RPRD2 (regulation of nuclear pre-mRNA domain containing 2) | 1 | 14 | inactive
IL1B (interleukin 1 beta) | 0 | 19 | inactive
KCNJ8 (potassium inwardly rectifying channel subfamily J member 8) | 0 | -16.5 | inactive
MMP13 (matrix metallopeptidase 13) | -1 | -8.7 | inactive
LOC441070 | 0 | 8.4 | inactive
CXCL17 (C-X-C motif chemokine ligand 17) | 1 | 2.9 | inactive
OR2G2 (olfactory receptor family 2 subfamily G member 2) | 0 | 15.2 | inactive
C1orf74 (chromosome 1 open reading frame 74) | 0 | -2.5 | inactive
EMC1 (ER membrane protein complex subunit 1) | 0 | 3.3 | inactive
HPDL (4-hydroxyphenylpyruvate dioxygenase like) | 0 | 9.3 | inactive

Ordered by “mean protection from cisplatin (shift in death) (%)” (ascending): 6 of the entries above
gene | two-siRNA summed score (-2 to +2) | mean protection from cisplatin (shift in death) (%) | Call
ARSG (arylsulfatase G) | -1 | -22.8 | inactive
CDC37L1 (cell division cycle 37 like 1, HSP90 cochaperone) | 0 | -4 | inactive
LOC153297 | 0 | 5.6 | inactive
SMC4 (structural maintenance of chromosomes 4) | 0 | 8.9 | inactive
LOC388131 | 0 | 10.8 | inactive
RASSF2 (Ras association domain family member 2) | 1 | 19.9 | inactive

More entries:
gene | two-siRNA summed score (-2 to +2) | mean protection from cisplatin (shift in death) (%) | Call
FCAMR (Fc alpha and mu receptor) | 0 | -7.1 | inactive
COX20 (cytochrome c oxidase assembly factor COX20) | 0 | 4.8 | inactive
MAN1C1 (mannosidase alpha class 1C member 1) | 1 | 5 | inactive
RABGGTA (Rab geranylgeranyltransferase subunit alpha) | 0 | -0.4 | inactive
LOC440265 | 0 | 0.3 | inactive
FLJ00193 | 0 | 4 | inactive
LOC339453 | 0 | 1 | inactive
SLC9A7 | 2 | 25.7 | active
GPATCH3 (G-patch domain containing 3) | -1 | -8.6 | inactive
TMPRSS9 (transmembrane serine protease 9) | 0 | 4.4 | inactive
LOC388830 | 0 | 5.1 | inactive
TLR5 (toll like receptor 5) | 0 | 8.5 | inactive
RPP25L (ribonuclease P/MRP subunit p25 like) | 0 | 8.6 | inactive
LOC440610 | 0 | 7.7 | inactive
ACSM3 (acyl-CoA synthetase medium chain family member 3) | 0 | 22.2 | inactive
ZYG11A (zyg-11 family member A, cell cycle regulator) | 1 | 10 | inactive
LOC440364 | 1 | 7.3 | inactive
IL36RN (interleukin 36 receptor antagonist) | 0 | -10.6 | inactive
LINC03043 (long independently transcribed non-coding RNA 3043) | 0 | 6.1 | inactive
LRRC8A (leucine rich repeat containing 8 VRAC subunit A) | 1 | 19.1 | inactive
ISY1 (ISY1 spliceosome associated protein) | 0 | 2.7 | inactive
RPS5 (ribosomal protein S5) | 0 | 33.2 | inactive
PPIAP87 (peptidylprolyl isomerase A pseudogene 87) | 0 | 3.3 | inactive
